Laboratory results: PMC5745148, “Mechanistic Insights into Autoinhibition of the Oncogenic Chromatin Remodeler ALC1” (Molecular Cell, 2017)
Results are given in words; binding and its absence hold for the method and conditions named. In cells and extracts the contact can be indirect. Some results given as binding are weak or reduced against the parent protein; the word gives no strength.

Amino acid sequences for entries named in this document (tags omitted). A change or cut given only in a name is not applied to a line headed by its entry. Chains listed by the source or under a name are the forms on record and can include a tag or linker. Residues count along the entry.
UniProt Q86WJ1: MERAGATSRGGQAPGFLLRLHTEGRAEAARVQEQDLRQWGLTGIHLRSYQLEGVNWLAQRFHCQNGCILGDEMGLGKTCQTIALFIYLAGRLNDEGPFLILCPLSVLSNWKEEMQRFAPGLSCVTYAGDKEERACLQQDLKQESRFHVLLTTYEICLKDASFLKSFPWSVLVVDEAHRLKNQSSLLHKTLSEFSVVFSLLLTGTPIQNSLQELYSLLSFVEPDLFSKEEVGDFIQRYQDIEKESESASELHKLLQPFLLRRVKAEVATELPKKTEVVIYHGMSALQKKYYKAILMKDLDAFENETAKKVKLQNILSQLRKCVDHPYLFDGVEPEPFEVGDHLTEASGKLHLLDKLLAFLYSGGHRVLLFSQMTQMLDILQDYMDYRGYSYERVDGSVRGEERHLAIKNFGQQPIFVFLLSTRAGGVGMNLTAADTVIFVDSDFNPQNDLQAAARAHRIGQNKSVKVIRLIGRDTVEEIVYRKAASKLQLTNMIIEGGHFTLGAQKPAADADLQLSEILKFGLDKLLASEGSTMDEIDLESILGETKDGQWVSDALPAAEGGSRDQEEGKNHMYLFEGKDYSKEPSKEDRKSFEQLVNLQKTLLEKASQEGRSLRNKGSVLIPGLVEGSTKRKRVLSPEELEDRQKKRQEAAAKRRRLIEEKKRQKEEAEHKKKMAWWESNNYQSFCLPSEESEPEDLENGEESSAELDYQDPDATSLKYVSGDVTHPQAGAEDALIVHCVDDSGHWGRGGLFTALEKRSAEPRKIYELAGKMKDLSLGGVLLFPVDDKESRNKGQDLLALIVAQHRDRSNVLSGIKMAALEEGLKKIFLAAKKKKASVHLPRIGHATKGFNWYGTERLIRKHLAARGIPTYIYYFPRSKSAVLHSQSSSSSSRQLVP
FLAG-tagged macro domain of ALC1 (FLAG-macro), wild type: residues 704-897 of Q86WJ1

Target: FLAG-tagged macro domain of ALC1 (FLAG-macro), wild type (human) (UniProt Q86WJ1)
Experiment: co-IP; U2OS cells co-transfected, grown in the presence of olaparib; lysate on anti-FLAG M2 affinity gel overnight at 4°C; immunoblot with anti-FLAG and anti-GFP

binding	Substance
no binding	YFP-tagged intact ALC1 (YFP-ALC1), wild type (from UniProt Q86WJ1 1-897)
binds	YFP-tagged intact ALC1 (YFP-ALC1) R857Q (from UniProt Q86WJ1 1-897)
binds	YFP-tagged intact ALC1 (YFP-ALC1) R860W (from UniProt Q86WJ1 1-897)

Substance	binding
YFP-tagged intact ALC1 (YFP-ALC1) R857E (from UniProt Q86WJ1 1-897)	binds
